Assay [1] has as its target hFGFR4-Histag (human) (UniProt P22455). Description: SPR (BIAcore 3000).
Assay [2] has the same target. The assay is described as follows: SPR (BIAcore 3000), see Table 4.
For assay [3], the target named is human FGF-R4 recombinant extracellular domain protein, construct not named (human) (UniProt P22455). Description: ELISA on plates coated with the 4 human FGF receptors, single condition, antibody concentration not given.
For assay [4] the target is unchanged. The assay is described as follows: ELISA on coated FGF-R4 constructs, single condition, antibody concentration not given. (In general: In an ELISA, binding on a coated surface is turned into a signal by an enzyme label.)
For assay [5] the target is unchanged. Description: ELISA on plates coated with the 4 human FGF receptors.
Assay [6] has the same target. The assay is described as follows: ELISA on coated FGF receptors.

Protein sequences, listed by entry. Tags and fused reporters are not part of them. Residues count along the entry.
UniProt P22455, residues 22-369: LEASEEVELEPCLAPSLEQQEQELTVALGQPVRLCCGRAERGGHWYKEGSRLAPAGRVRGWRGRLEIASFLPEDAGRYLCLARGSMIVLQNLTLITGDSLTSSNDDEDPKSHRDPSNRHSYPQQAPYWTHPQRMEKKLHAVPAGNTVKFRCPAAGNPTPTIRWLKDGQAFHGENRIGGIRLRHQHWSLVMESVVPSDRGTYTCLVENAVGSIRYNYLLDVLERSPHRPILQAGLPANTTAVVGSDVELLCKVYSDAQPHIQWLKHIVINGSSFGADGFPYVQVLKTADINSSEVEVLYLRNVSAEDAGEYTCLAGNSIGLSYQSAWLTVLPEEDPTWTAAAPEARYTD

Results are given in words; binding and its absence hold for the method and conditions named. Some entries that bind do so weakly or less than the wild type.

B1: anti-FGFR4 antibody clone 8 (human IgG1 format) (antibody, V domains shown)
VH: EVQLLESGGGLVQPGGSLRLSCAASGFTFSPYWMGWVRQAPGKGLEWVSVIWPSGGTTDYADSVKGRFTISRDNSKNTLYLQMNSLRAEDTAVYYCARVHPAGHNDHWGQGTLVTVSS
VL: QSELTQPPSASGTPGQRVTISCSGGYSNMGSNYAHWYQQLPGTAPKLLIYNNNQRPSGVPDRFSGSKSGTSASLAISGLRSEDEADYYCAAWDDSLSGPVFGGGTKLTVLG
With B1, the binding result with hFGFR4-Histag (human) [1] and with hFGFR4-Histag (human) [2] was “binds” each time.

B2: anti-FGFR4 antibody clone 36 (human IgG1 format) (antibody, V domains shown)
VH: EVQLLESGGGLVQPGGSLRLSCAASGFTFSHYWMGWVRQAPGKGLEWVSVISPSGGLTIYADSVKGRFTISRDNSKNTLYLQMNSLRAEDTAVYYCARSSGWALDAFDIWGQGTMVTVSS
VL: QYELTQPPSASGTPGQRVTISCSGSSSNIGSNIVHWYQQLPGTAPKLLIYGNNQRPSGVPDRFSVSKSGSSASLAISGLQSEDEADYYCASWDDSLKAFYVFGTGTKVTVLG
On to B2, for which the binding entry with hFGFR4-Histag (human) [1] and with hFGFR4-Histag (human) [2] was “binds” throughout.

B3: anti-FGFR4 antibody clone 33 (human IgG1 format) (antibody, V domains shown)
VH: EVQLLESGGGLVQPGGSLRLSCAASGFTFSTYWMAWVRQAPGKGLEWVSVIGPSGGMTVYADSVKGRFTISRDNSKNTLYLQMNSLRAEDTAVYYCARINSGSSHFDYWGQGTLVTVSS
VL: QSVLTQPPSASGTPGQGVTISCSGSSSNIGSNSVNWYQQLPGAAPKLLIYSNNLRPSGVPARFSGSKSGTSASLAISGLRSEDEADYYCAAWDDGLDAYVVFGGGTKLTVLG
As for B3, the binding result with hFGFR4-Histag (human) [1] and with hFGFR4-Histag (human) [2] was “binds” in each case.

B4: anti-FGFR4 antibody clone 31 (human IgG1 format) (antibody, V domains shown)
VH: EVQLLESGGGLVQPGGSLRLSCAASGFTFSRYFMKWVRQAPGKGLEWVSWISPSGGLTEYADSVKGRFTISRDNSKNTLYLQMNSLRAEDTAVYYCARASYGAWLDYWGQGTLVTVSS
VL: DIQMTQSPSSLSLSPGERATLSCRASQSINRNLGWYQQKPGQAPRLLIYGASTRATGIPARFTGSGSGTEFSLTISSLQSEDYAIYYCQQYDNWPIIFGQGTRLEIKG
Regarding B4, the binding entry in the assay with hFGFR4-Histag (human) [1] and with hFGFR4-Histag (human) [2] was “binds” each time.

B5: anti-FGFR4 antibody 64-12 (antibody, mouse IgG1, V domains shown)
VH: DVQLVESGGGLVQPGGSRKLSCAASGFTFSNFGMHWVRQAPEKGLEWVAYISSGSSTIYYADTVKGRFTISRDNPKNTLFLQMTSLRSEDTAMYYCARYDYDDDYYAMEYWGQGTSVTVSS
VL: QAVVTQESALTTSPGETVTLTCRSSTGAVTTSNYANWVQEKPDHLFTGLIGGTNNRAPGVPARFSGSLIGDKAALTITGAQTEDEAIYFCALWYSNHWVFGGGTKLTVLG
As for B5, the binding entry in assay [3], in assay [4], in assay [5] and in assay [6] was “binds” each time.

Values taken from patent US20110150903A1.
